Test results taken from article PMC11265163.
These are yes or no findings as the source states them, for the method shown. Binding seen in cells or lysates may run through a third protein. Here binding means that the protein was enriched with, or labelled near, the bait; the list need not be complete.

Amino acid sequences for entries named in this document (tags omitted).
UniProt Q9UKK3: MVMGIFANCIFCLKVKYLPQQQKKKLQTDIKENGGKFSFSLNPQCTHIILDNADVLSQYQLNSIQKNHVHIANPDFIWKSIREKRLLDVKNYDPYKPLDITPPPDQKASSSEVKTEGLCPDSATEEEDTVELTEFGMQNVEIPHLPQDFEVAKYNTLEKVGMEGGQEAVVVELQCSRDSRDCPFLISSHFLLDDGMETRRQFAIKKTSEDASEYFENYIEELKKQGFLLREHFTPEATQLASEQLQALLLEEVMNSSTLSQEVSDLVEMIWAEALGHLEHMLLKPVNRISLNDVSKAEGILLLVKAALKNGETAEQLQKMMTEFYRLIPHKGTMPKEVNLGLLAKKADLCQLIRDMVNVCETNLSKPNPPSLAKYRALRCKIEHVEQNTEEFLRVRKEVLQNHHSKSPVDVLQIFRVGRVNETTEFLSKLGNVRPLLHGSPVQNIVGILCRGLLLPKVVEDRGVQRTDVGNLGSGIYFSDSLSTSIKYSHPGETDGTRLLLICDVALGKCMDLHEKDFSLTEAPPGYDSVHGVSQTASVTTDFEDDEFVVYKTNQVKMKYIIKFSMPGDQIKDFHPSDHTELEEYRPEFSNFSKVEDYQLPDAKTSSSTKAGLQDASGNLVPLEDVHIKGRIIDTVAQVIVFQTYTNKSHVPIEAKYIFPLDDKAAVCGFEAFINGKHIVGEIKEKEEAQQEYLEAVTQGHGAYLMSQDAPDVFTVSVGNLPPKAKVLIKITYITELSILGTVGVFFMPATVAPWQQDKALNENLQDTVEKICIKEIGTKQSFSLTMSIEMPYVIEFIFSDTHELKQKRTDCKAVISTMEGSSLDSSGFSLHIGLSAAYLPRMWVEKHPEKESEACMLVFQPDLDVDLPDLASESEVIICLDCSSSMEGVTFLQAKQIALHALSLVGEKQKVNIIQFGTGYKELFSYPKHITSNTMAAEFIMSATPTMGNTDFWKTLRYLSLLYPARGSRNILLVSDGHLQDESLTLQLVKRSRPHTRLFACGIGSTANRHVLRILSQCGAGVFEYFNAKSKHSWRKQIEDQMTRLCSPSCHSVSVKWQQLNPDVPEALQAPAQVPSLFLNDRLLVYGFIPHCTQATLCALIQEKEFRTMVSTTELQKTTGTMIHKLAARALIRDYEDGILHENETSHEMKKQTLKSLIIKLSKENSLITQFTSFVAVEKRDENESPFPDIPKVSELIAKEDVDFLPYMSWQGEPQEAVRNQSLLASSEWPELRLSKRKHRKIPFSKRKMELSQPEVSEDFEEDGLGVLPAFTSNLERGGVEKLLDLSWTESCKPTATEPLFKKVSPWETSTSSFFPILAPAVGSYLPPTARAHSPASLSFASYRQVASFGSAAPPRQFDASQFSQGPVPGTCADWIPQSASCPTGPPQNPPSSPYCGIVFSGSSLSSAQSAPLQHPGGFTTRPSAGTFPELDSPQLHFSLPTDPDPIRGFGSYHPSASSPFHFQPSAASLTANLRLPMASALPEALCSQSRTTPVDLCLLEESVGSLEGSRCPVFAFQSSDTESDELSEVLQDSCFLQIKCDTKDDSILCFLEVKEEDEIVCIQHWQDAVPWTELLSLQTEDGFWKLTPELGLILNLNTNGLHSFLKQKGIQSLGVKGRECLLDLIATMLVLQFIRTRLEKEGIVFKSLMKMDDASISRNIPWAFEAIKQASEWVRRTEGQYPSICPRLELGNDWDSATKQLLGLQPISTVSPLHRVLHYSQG
UniProt Q14764: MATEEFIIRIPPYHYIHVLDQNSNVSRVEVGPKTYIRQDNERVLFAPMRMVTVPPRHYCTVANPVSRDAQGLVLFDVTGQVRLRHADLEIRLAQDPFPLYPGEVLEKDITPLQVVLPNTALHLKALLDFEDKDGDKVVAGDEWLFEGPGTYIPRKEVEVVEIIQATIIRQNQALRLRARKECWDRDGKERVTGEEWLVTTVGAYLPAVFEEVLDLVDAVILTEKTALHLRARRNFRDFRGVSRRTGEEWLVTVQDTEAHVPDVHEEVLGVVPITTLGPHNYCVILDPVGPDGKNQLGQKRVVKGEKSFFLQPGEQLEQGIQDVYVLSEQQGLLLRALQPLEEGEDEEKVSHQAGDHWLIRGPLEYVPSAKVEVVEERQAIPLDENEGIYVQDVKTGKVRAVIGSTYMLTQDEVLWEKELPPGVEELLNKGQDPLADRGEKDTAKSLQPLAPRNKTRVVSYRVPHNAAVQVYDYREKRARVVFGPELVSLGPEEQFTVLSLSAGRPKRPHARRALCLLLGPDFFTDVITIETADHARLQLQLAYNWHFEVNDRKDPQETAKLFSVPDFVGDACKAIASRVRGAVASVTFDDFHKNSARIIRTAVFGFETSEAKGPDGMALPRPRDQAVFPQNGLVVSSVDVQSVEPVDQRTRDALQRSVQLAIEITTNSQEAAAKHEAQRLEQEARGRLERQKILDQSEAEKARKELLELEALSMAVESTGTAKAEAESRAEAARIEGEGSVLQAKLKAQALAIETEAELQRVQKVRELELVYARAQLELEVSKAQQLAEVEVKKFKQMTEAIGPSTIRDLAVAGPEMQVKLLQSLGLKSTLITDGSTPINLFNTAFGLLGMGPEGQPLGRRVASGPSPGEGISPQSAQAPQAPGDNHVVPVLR

Target: PARP4 (human (endogenous in iSAEC-K, A549 and patient-derived lung cell lines)) (UniProt Q9UKK3)
Experiment: affinity purification with mass spectrometry; immunoprecipitation of endogenous PARP4 from SILAC-labelled extracts of iSAEC-K shControl cells, shPARP4 #1 cells as negative control; forward and reverse experiments; quantitative mass spectrometry

Substance: major vault protein (MVP) (from UniProt Q14764 1-893)
- binding: binds
